Reference: patent US8227240B2, “Systems for screening pharmaceutical chemicals” (The Washington University, priority 2001, dated 2012)
For at least one compound, name, drawing or mass did not settle the structure. Where a SMILES comes first, the peptide text is derived from it.

System: rat embryo fibroblast derived cell line (REF52)
Assay: Force response of ring samples to physiological activators without stretching
Assay type: cell-based
Settings: each drug added to a single tissue ring
Description: Ring samples made using a rat embryo fibroblast derived cell line (REF52) were prepared as described previously herein. The length of the tissue was maintained at a constant level during the test. Each of the drugs indicated in FIG. 15 was added to a single tissue ring.

## NC(N)=NCCC[C@H](NC(=O)[C@H](Cc1ccccc1)NC(=O)[C@@H]1CCCN1C(=O)[C@H](CO)NC(=O)[C@H](Cc1ccccc1)NC(=O)CNC(=O)[C@@H]1CCCN1C(=O)[C@@H]1CCCN1C(=O)[C@@H](N)CCCN=C(N)N)C(=O)O [bradykinin] (H-RPPGFSPFR-OH)
  force response of tissue ring at constant length: produce different forces
